Five molecules from PMC4935812 can be followed below.

By UniProt entry, the sequences of proteins in these tests, tags left out.
UniProt Q09161: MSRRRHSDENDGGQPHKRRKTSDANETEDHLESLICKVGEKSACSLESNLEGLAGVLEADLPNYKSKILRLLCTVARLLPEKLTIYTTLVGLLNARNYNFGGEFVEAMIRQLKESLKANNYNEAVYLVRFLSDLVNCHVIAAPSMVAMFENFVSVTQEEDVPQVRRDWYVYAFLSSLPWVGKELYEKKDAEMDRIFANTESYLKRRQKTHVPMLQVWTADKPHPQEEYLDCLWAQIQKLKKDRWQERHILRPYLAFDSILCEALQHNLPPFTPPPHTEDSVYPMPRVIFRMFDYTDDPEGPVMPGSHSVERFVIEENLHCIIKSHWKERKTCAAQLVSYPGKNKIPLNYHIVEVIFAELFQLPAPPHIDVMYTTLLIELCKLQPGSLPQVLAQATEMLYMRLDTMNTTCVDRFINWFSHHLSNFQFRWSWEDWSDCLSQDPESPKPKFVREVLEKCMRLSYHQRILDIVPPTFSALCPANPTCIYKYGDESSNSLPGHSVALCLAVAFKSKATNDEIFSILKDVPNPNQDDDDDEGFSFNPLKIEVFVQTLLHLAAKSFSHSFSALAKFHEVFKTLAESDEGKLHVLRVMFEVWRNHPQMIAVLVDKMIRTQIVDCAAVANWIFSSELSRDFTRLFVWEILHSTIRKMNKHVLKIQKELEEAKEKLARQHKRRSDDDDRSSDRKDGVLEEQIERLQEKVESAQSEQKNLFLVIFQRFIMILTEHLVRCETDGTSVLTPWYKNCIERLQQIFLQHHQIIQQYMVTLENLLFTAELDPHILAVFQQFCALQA
UniProt P41091: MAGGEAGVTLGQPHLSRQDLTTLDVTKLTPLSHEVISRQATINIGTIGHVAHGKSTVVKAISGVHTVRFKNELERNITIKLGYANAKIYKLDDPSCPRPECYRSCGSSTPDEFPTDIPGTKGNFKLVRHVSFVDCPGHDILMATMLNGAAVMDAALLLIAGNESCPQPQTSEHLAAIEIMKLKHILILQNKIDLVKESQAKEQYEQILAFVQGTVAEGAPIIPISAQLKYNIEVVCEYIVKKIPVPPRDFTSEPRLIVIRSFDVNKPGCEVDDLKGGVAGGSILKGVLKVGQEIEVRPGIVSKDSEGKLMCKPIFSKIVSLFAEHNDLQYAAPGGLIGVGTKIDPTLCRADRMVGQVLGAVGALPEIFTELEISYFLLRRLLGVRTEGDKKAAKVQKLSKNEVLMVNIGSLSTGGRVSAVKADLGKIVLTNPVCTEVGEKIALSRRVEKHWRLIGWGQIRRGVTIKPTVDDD
UniProt P60842: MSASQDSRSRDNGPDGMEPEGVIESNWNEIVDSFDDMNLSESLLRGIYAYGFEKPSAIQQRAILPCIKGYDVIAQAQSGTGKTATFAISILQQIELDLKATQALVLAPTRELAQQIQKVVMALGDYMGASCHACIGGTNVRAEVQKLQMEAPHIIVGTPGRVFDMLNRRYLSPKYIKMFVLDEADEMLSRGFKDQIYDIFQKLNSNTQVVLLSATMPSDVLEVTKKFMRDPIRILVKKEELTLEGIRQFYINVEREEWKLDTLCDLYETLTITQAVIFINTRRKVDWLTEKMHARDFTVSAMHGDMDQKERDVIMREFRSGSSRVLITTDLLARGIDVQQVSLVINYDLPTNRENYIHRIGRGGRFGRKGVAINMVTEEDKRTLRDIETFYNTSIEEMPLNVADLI
UniProt P11940: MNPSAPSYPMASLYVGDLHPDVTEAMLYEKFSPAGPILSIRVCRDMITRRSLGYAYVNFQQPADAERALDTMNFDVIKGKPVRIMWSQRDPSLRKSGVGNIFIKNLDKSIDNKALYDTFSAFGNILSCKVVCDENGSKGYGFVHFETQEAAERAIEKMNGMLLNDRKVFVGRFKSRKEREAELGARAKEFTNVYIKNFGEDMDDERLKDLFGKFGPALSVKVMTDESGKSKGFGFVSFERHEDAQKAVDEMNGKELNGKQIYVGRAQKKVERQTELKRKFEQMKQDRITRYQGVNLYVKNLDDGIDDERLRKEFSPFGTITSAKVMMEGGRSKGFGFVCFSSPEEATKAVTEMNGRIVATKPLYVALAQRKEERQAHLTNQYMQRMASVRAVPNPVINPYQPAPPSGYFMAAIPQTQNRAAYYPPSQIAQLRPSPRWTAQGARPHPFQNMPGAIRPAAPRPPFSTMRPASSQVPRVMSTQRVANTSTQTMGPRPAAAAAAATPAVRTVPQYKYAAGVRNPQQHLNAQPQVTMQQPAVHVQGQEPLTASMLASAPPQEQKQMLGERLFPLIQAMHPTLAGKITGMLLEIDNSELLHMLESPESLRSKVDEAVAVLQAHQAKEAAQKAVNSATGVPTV

Results are given in words; binding and its absence hold for the method and conditions named. In cells and extracts the contact can be indirect. Here binding means that the protein was enriched with, or labelled near, the bait; the list need not be complete.

Sequences and labels used below:
T1: SRSF3 (of the SRSF3 immunoprecipitates used for proteomic analysis) (human) (UniProt P84103)
T1 sequence: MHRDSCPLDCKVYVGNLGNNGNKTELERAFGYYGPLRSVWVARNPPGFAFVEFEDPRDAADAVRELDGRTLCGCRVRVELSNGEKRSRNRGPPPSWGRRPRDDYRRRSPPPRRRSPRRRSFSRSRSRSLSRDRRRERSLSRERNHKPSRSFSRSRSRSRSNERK

B1: eukaryotic translation initiation factor 2A (EIF2A) (protein, UniProt Q9BY44 1-585)
chain: MAPSTPLLTVRGSEGLYMVNGPPHFTESTVFPRESGKNCKVCIFSKDGTLFAWGNGEKVNIISVTNKGLLHSFDLLKAVCLEFSPKNTVLATWQPYTTSKDGTAGIPNLQLYDVKTGTCLKSFIQKKMQNWCPSWSEDETLCARNVNNEVHFFENNNFNTIANKLHLQKINDFVLSPGPQPYKVAVYVPGSKGAPSFVRLYQYPNFAGPHAALANKSFFKADKVTMLWNKKATAVLVIASTDVDKTGASYYGEQTLHYIATNGESAVVQLPKNGPIYDVVWNSSSTEFCAVYGFMPAKATIFNLKCDPVFDFGTGPRNAAYYSPHGHILVLAGFGNLRGQMEVWDVKNYKLISKPVASDSTYFAWCPDGEHILTATCAPRLRVNNGYKIWHYTGSILHKYDVPSNAELWQVSWQPFLDGIFPAKTITYQAVPSEVPNEEPKVATAYRPPALRNKPITNSKLHEEEPPQNMKPQSGNDKPLSKTALKNQRKHEAKKAAKQEARSDKSPDLAPTPAPQSTPRNTVSQSISGDPEIDKKIKNLKKKLKAIEQLKEQAATGKQLEKNQLEKIQKETALLQELEDLELGI

In this experiment the target is T1, SRSF3 (of the SRSF3 immunoprecipitates used for proteomic analysis) (human). Kind of experiment: affinity purification with mass spectrometry; proteomic analysis of SRSF3 immunoprecipitates; no further details given.
Consider “nuclear cap-binding protein (NCBP1) (from UniProt Q09161 1-790)”, for which the binding entry is on record as “binds”. Then “eukaryotic translation initiation factor 2 subunit 3 (EIF2S3) (from UniProt P41091 1-472)”, with “binds”; and “eukaryotic initiation factor 4A-1 (EIF4A1) (from UniProt P60842 1-406)”, with “binds”. “polyadenylate-binding protein 1 (PABP1) (from UniProt P11940 1-636)”: the binding entry is listed as “binds”. In the case of B1 it was “binds”.
